Laboratory results reported in PMC9168836, “Clamping of DNA shuts the condensin neck gate” (Proceedings of the National Academy of Sciences of the …, 2021).
These are yes or no findings as the source states them, for the method shown. Each block holds one binder with its values, some of them ahead of it.

Tests used:
[1] = target: T1, Smc4-3xStrepII (budding yeast (S. cerevisiae)), Q12267; assay: cryo-EM structure; condensin pentamer (Smc2, Smc4, Brn1, Ycs4, Ycg1) with 80-bp dsDNA, 5 mM ADP, 1 mM BeSO4, 10 mM NaF in TNT buffer pH 7.5; separate maps of the clamped head module and of Ycg1-DNA; both purified; settings: remark: other sources report otherwise
T1 chain: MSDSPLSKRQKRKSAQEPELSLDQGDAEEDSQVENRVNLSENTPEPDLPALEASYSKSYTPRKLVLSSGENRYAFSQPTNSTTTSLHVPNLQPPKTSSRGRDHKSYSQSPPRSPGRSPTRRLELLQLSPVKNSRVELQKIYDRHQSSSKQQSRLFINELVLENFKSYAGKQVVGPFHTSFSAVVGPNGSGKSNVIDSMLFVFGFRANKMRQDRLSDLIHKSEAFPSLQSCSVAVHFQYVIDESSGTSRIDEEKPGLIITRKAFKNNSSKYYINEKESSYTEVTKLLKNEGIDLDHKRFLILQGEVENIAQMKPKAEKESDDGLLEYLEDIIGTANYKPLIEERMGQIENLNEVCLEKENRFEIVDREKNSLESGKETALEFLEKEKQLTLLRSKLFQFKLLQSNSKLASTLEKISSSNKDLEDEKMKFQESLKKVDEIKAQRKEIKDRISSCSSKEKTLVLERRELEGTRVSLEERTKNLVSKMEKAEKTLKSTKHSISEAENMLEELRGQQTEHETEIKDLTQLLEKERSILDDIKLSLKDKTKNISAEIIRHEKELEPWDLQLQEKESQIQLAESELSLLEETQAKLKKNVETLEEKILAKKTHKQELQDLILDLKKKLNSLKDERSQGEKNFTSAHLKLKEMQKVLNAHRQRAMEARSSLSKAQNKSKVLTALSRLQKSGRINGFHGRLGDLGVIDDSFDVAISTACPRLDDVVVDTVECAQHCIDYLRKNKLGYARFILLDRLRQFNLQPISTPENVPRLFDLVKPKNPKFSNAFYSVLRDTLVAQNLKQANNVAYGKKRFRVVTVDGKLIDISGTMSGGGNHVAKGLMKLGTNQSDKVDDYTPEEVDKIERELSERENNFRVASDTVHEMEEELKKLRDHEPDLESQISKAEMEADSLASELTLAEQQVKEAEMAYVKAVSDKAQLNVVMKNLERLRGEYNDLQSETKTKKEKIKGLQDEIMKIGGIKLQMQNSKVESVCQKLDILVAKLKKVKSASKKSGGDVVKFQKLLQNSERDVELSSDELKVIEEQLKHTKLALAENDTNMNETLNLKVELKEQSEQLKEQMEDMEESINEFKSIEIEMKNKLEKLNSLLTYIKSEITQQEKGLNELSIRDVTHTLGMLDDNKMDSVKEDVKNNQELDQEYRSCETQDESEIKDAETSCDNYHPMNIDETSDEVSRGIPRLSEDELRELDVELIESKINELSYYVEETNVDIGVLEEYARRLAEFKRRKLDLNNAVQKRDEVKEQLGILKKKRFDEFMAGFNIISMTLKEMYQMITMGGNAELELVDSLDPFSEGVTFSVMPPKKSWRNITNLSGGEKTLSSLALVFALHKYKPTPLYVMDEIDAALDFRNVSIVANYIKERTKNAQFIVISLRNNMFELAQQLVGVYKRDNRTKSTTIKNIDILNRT

[2] = target: T2, Ycs4 (S. cerevisiae, UniProt Q06156 1-1176); assay: as above
T2 construct: Ycs4, HAWK (HEAT repeat) subunit of S. cerevisiae condensin
T2 sequence: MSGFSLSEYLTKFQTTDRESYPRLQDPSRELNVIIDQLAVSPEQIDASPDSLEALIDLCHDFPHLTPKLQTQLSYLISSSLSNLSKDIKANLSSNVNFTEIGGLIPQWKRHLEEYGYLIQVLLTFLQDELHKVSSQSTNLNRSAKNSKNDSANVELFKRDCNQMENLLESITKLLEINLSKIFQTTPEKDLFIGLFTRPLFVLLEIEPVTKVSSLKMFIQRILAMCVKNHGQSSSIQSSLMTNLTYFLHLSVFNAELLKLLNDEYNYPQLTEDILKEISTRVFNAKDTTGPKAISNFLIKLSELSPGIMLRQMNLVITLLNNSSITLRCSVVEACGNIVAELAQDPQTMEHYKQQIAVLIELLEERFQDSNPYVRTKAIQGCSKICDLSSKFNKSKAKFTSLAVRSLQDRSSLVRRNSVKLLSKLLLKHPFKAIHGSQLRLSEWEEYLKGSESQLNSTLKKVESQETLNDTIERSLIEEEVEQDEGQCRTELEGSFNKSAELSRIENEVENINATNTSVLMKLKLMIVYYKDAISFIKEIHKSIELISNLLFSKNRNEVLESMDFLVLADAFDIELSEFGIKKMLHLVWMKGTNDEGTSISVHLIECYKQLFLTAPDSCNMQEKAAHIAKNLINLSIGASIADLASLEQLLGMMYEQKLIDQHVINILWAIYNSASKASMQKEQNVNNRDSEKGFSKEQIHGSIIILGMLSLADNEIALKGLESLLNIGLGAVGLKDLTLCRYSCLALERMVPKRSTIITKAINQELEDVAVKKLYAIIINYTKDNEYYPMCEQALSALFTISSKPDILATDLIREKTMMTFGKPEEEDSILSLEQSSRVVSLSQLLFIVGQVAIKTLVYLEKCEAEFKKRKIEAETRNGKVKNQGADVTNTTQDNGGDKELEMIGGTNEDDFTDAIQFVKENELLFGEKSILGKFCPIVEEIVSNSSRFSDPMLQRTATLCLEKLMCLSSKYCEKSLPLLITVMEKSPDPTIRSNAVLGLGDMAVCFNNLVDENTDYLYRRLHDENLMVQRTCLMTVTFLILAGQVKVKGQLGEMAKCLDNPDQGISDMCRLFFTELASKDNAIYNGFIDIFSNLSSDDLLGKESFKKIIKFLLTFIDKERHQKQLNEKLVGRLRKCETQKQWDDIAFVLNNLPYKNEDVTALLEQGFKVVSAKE

binding [1]: no binding
B1: Ycg1, Q06680 1-1035 (protein)
chain: MQDPDGIDINTKIFNSVAEVFQKAQGSYAGHRKHIAVLKKIQSKAVEQGYEDAFNFWFDKLVTKILPLKKNEIIGDRIVKLVAAFIASLERELILAKKQNYKLTNDEEGIFSRFVDQFIRHVLRGVESPDKNVRFRVLQLLAVIMDNIGEIDESLFNLLILSLNKRIYDREPTVRIQAVFCLTKFQDEEQTEHLTELSDNEENFEATRTLVASIQNDPSAEVRRAAMLNLINDNNTRPYILERARDVNIVNRRLVYSRILKSMGRKCFDDIEPHIFDQLIEWGLEDRELSVRNACKRLIAHDWLNALDGDLIELLEKLDVSRSSVCVKAIEALFQSRPDILSKIKFPESIWKDFTVEIAFLFRAIYLYCLDNNITEMLEENFPEASKLSEHLNHYILLRYHHNDISNDSQSHFDYNTLEFIIEQLSIAAERYDYSDEVGRRSMLTVVRNMLALTTLSEPLIKIGIRVMKSLSINEKDFVTMAIEIINDIRDDDIEKQEQEEKIKSKKINRRNETSVDEEDENGTHNDEVNEDEEDDNISSFHSAVENLVQGNGNVSESDIINNLPPEKEASSATIVLCLTRSSYMLELVNTPLTENILIASLMDTLITPAVRNTAPNIRELGVKNLGLCCLLDVKLAIDNMYILGMCVSKGNASLKYIALQVIVDIFSVHGNTVVDGEGKVDSISLHKIFYKVLKNNGLPECQVIAAEGLCKLFLADVFTDDDLFETLVLSYFSPINSSNEALVQAFAFCIPVYCFSHPAHQQRMSRTAADILLRLCVLWDDLQSSVIPEVDREAMLKPNIIFQQLLFWTDPRNLVNQTGSTKKDTVQLTFLIDVLKIYAQIEKKEIKKMIITNINAIFLSSEQDYSTLKELLEYSDDIAENDNLDNVSKNALDKLRNNLNSLIEEINERSETQTKDENNTANDQYSSILGNSFNKSSNDTIEHAADITDGNNTELTKTTVNISAVDNTTEQSNSRKRTRSEAEQIDTSKNLENMSIQDTSTVAKNVSFVLPDEKSDAMSIDEEDKDSESFSEVC

binding [2]: no binding
B2: Ycg1 (protein, UniProt Q06680 1-1035)
chain: B1 chain
